Hit rate of the full screen: of about 320,000 compounds, about 2,100 (0.66%) were called active. This list was built around the results that the source calls inconclusive (neither active nor inactive); the mix of calls is not that of the screen. The call rests on the fitted dose curve; in most records, active means well fitted inhibition curve with a large enough effect in the signal ratio, with a control signal flat (not every such curve was filed as active); inconclusive means small, poorly fitted or top-dose-only effect, or effect the other way, or a change in a side signal; inactive means flat fitted curve, though single readings scatter; the % refers to the signal ratio. Potencies of inconclusive entries are doubtful fits and often do not repeat.
Assay: qHTS Assay for Lipid Storage Modulators in Drosophila S3 Cells
Conditions: BODIPY lipid droplet fluorescence, 18-24 h, cells fed with added oleic acid; lipid storage change, negative = inhibition: at 46.1 µM (top of the series) unless noted
How it was run: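 Laser-scanning cytometry quantifies lipid droplet accumulation (500–530 nm total intensity; droplet/cell object ratio) in oleic acid-fed (400 uM added) Drosophila S3 cells treated with a concentration series. 20 uM Triacsin C defined 100% inhibition.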
On the % scale 0 is the no-effect control and ±100 the full control effect; potency means the concentration at half of the fitted maximal effect.

SMILES	lipid storage change, negative = inhibition	Potency
Cc1cc(S(=O)(=O)N2CCCC2)ccc1OCC(=O)NCc1ccccn1	inconclusive: 6.72%	–
O=C(c1ccc(NS(=O)(=O)c2ccc3[nH]c(=O)[nH]c3c2)cc1)N1CCN(c2ccccc2)CC1	–	inconclusive: 2590 nM [activator, partial curve, poor fit]
COc1cc(C(=O)N2CCN(C)C(C)C2)ccc1OC1CCN(C(C)=O)CC1 (stereo not drawn)	inconclusive: -22.4%	–
CN(C)C(CNC(=O)c1cccc(S(=O)(=O)NCc2ccccc2)c1)c1ccccc1 (stereo not drawn)	inconclusive	–
CC(C)(C)N1CC(C(=O)O)CC1=O (stereo not drawn)	inconclusive: 2.83%	–
COc1ccccc1NS(=O)(=O)CC12CCC(CC1=O)C2(C)C (stereo not drawn)	inconclusive: 4.07%	–
C=CCc1cc(/C=C/c2nc(O)c([N+](=O)[O-])c(=O)[nH]2)cc(OC)c1O	–	inconclusive: 731 nM [cytotoxic, full curve]
CCCN1Cc2cccc(C(=O)NCc3ccc4c(c3)OCO4)c2C1=O	–	inconclusive: 580 nM [activator, full curve]
COc1ccc(C(=O)C2CCN(C(=O)c3ccc(F)cc3)CC2)cc1	–	inconclusive: 517 nM [activator, partial curve, poor fit]
C=CCOc1ccc(/C=N/NC(=O)c2c(C)nc3ccc(Cl)cn23)cc1	inconclusive: 19.7%	–
CCOc1ccc(NC(=O)C(CC(=O)O)Cc2ccc(Br)cc2)cc1 (stereo not drawn)	–	inconclusive: 5800 nM [falling, full curve]
COCCCNC(=S)NNC(=O)c1ccccc1Br	inconclusive: 3.68%	–
COc1ccc(C)cc1-n1nnnc1SCC(=O)N1CCC(C(=O)Nc2nccs2)CC1	inconclusive: 11.3%	–
Cc1ccc(NC(=O)CSC2=C(C#N)C(c3ccco3)CC(=O)N2)cc1 (stereo not drawn)	–	inconclusive: 146 nM [activator, full curve, poor fit]
COc1ccccc1CNC(=O)CC1C(=O)NCCN1C1Cc2ccccc2C1 (stereo not drawn)	inconclusive: -23.6%	–
COc1ccc(S(=O)(=O)N2CCCC2)c(C)c1C	–	inconclusive: 16400 nM [activator, partial curve]
CCCc1cc(=O)oc2cc(C)cc(OC(C)C(=O)NCC(O)c3ccccc3)c12 (stereo not drawn)	inconclusive: 23.2%	–
Cc1ccnc(NC(=O)CCC(=O)N(CC(=O)NCc2ccc(F)cc2)CC2CCCO2)c1 (stereo not drawn)	–	inconclusive: 6510 nM [activator, partial curve, poor fit]
O=C(Oc1ccc(=O)n(-c2ccccc2)n1)c1ccc(F)cc1	inconclusive: -2.54% [at 9.22 µM]	–

Already shown: an excerpt of the list.
SMILES	lipid storage change, negative = inhibition	Potency
CN(C)C(CNC(=O)c1cccc(S(=O)(=O)NCc2ccccc2)c1)c1ccccc1 (stereo not drawn)	inconclusive	–
CC(C)(C)N1CC(C(=O)O)CC1=O (stereo not drawn)	inconclusive: 2.83%	–

Next part.

SMILES	lipid storage change, negative = inhibition	Potency
COc1ccc(C2C(C#N)=C(N)OC3=C2C(=O)CC(C)(C)C3)cc1Cn1nc(C)c([N+](=O)[O-])c1C (stereo not drawn)	inactive: 9.69%	–
O=C(/C=C/c1ccc(Cl)cc1)NCc1ccco1	inconclusive: 24.7%	–
O=C(CC1C(=O)NCCN1Cc1c(F)cccc1Cl)NC1CCCC1 (stereo not drawn)	inconclusive: -12.3%	–
CC(C)CC(=O)Nc1nnc(S(=O)(=O)N2CCc3ccccc32)s1	inconclusive: 18.7%	–
CCOC(=O)C1(Cc2ccccc2Cl)CCN(S(C)(=O)=O)CC1	inconclusive: 0.141%	–
CC1CCCN(CC(O)COc2ccc(-c3ccccc3)cc2)C1 (stereo not drawn)	inconclusive: -0.476%	–
Cc1ccc(C(=O)N2CC(=O)Nc3ccc(F)cc3C2c2ccccc2)cc1[N+](=O)[O-] (stereo not drawn)	inconclusive: 16.2%	–
CCCCCC/C=N/Nc1nnc(Cc2ccc(OC)c(OC)c2)c(=O)[nH]1	inactive: -24%	–
O=C(CSc1nc2ccccc2c(=O)[nH]1)Nc1ccc(Br)cc1	inconclusive: -123%	–
COc1ccc(NC(=S)NCc2ccccn2)cc1OC	inconclusive: 13.8%	–
N#CCCN(C(=O)Cn1nc(C(=O)O)c2ccccc2c1=O)c1ccccc1	–	inconclusive: 2310 nM [falling, partial curve, poor fit]
Cc1c(C(=O)Nc2nnc(C3CC3)s2)oc2c(Cl)cccc12	inconclusive: 29.2%	–
C=C1CN(Cc2ccccc2)S(=O)(=O)c2ccccc21	inconclusive: 15.7%	–
CCC1Oc2ccccc2N(CC(=O)NCCCN2CCCC2)C1=O (stereo not drawn)	inconclusive: 79.7%	–
COc1ccc(S(=O)(=O)N2CCCCC2)cc1NC(=O)C1CC(=O)N(c2ccc3c(c2)OCCO3)C1 (stereo not drawn)	inconclusive	–
O=C1CCN(Cc2ccccc2)S(=O)(=O)c2ccc(F)cc21	–	inconclusive: 3660 nM [activator, single point]
CCCOn1c(-n2nc(C)cc2C)nc2ccccc2c1=O	–	inconclusive: 1840 nM [rising, partial curve]
Cn1cnnc1SCC(=O)Nc1ccc(Oc2ccccc2)cc1	inconclusive: 31.1%	–
CCCc1ccc(C(=O)NNC(=O)c2ccc(Cl)cc2)cc1	inconclusive: 8.41%	–
